What all share (experiment): pull-down; both purified
Assay [1] concerns the target GST-SUMO-1 (human (cDNA from BCBL-1 cells)) (UniProt P63165).
For assay [2], the target named is GST-SUMO-2 (human (cDNA from BCBL-1 cells)) (UniProt P61956).
The target of assay [3] is GST-SUMO-3 (human (cDNA from BCBL-1 cells)) (UniProt P55854).

Amino acid sequences for entries named in this document (tags omitted). Residues count along the entry.
UniProt P63165, residues 1-97: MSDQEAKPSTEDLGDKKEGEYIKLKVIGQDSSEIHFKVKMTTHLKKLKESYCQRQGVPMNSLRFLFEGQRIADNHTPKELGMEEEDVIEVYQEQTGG
UniProt P61956: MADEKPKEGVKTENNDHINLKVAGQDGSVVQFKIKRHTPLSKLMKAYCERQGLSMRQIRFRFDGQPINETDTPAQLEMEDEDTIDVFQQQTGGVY
UniProt P55854, residues 1-92: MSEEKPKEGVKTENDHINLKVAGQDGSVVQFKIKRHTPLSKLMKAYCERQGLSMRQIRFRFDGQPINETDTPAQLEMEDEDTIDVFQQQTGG
UniProt F5HCV3: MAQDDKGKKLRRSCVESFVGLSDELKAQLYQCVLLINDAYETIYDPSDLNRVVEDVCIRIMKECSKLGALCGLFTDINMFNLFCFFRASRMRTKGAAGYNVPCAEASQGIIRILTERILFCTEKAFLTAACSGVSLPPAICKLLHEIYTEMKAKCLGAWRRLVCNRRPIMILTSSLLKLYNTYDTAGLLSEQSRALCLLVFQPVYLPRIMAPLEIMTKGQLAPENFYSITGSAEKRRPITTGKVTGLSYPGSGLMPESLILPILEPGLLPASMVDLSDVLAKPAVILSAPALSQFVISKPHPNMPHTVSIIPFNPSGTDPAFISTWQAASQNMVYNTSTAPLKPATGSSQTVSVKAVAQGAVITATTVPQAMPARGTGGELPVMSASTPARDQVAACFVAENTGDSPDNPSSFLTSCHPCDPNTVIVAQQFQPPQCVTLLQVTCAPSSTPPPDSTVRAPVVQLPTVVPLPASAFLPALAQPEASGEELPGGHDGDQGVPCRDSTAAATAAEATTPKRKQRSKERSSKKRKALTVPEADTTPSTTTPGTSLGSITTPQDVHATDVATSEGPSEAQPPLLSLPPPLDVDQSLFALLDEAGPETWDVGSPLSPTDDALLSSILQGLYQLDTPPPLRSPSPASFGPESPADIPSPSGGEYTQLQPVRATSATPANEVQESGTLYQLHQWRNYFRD

Results on one substance are retold here after PMC3749962.

Results are given in words; binding and its absence hold for the method and conditions named. Some entries that bind do so weakly or less than the wild type.

As to “Flag-K-Rta (KSHV K-Rta, wild type) (from UniProt F5HCV3 1-691)”, the binding entry in assay [1] is reported as “no binding”; in assay [2] it was “binds”; in assay [3] it was “binds”.
